Article PMC2776345
Results are given in words; binding and its absence hold for the method and conditions named. Some entries that bind do so weakly or less than the wild type.

The chains behind the UniProt entries cited, without tags or fusion partners.
UniProt Q6A548: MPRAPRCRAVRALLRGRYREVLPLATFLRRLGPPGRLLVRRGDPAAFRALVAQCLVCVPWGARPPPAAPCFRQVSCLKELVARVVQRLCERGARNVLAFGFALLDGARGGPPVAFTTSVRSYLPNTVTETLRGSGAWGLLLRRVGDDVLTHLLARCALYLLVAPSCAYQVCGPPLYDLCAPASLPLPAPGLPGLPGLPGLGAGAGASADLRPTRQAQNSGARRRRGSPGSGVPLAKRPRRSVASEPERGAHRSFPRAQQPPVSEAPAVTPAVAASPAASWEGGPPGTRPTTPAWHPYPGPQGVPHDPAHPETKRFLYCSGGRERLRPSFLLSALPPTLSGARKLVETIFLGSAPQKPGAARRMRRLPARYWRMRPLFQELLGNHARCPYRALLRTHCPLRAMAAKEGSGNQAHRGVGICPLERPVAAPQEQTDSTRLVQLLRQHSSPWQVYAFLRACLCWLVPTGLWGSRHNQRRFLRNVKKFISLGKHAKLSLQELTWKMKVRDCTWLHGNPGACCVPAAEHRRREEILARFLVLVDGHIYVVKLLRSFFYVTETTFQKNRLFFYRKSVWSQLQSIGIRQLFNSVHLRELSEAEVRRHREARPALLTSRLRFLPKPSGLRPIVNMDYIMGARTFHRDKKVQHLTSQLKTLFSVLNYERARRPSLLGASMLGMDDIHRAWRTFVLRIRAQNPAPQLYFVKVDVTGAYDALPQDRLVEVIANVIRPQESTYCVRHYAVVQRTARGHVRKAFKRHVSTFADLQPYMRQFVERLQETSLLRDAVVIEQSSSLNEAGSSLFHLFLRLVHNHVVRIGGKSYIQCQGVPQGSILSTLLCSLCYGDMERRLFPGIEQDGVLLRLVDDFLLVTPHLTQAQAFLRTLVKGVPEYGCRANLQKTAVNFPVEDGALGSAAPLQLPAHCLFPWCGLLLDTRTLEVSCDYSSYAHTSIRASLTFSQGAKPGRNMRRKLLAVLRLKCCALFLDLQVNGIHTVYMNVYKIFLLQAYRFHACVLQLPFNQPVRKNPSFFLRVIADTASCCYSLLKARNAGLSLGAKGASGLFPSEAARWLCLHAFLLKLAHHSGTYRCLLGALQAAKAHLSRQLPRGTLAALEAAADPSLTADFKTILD
UniProt A0A8I3S186: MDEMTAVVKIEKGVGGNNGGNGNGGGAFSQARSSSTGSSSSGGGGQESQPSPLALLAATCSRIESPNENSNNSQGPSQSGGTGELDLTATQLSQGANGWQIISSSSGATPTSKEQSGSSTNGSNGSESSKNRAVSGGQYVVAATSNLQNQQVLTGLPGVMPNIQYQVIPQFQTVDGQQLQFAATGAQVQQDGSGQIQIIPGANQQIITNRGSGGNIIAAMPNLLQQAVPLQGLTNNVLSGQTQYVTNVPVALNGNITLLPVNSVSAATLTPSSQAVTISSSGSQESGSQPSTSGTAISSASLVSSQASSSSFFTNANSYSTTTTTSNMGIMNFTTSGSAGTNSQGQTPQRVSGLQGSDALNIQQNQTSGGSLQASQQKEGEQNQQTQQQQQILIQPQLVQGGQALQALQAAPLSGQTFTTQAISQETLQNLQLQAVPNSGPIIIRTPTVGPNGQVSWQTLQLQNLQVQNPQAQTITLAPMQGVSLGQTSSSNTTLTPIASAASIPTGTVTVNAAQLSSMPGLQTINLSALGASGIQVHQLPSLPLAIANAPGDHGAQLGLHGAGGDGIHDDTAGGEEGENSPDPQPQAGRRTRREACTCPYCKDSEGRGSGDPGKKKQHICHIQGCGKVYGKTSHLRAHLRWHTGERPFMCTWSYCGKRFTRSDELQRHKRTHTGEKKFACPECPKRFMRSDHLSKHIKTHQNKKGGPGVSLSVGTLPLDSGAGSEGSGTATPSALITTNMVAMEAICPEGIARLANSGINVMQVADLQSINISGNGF
UniProt Q29537: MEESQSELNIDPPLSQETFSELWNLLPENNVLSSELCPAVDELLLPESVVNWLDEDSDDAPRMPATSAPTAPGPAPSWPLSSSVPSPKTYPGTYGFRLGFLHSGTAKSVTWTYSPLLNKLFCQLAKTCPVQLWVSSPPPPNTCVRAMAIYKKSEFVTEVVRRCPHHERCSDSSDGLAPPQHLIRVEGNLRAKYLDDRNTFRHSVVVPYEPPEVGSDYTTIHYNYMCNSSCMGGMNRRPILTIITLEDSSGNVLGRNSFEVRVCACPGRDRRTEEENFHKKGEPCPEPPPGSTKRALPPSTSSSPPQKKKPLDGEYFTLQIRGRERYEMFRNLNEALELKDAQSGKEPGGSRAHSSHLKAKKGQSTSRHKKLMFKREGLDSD

Experiments:
[1] = target: Telomerase reverse transcriptase (dog (endogenous in canine lens epithelial cells)) (UniProt Q6A548); assay: TF-TF interaction array (TranSignal, Panomics); nuclear extract of canine anterior lens capsules (cataractous; normal too) incubated with biotin-labelled cis-element probes, immunoprecipitation with anti-TERT, eluted cis-elements hybridised to the array membrane
[2] = target: Telomerase reverse transcriptase (dog (endogenous in canine lens epithelial cells)) (UniProt Q6A548); assay: TF-TF interaction array (TranSignal, Panomics); nuclear extract of normal canine anterior lens capsules incubated with biotin-labelled cis-element probes, immunoprecipitation with anti-TERT, eluted cis-elements hybridised to the array membrane

| Substance | binding [1] | binding [2] |
| --- | --- | --- |
| Sp1 (from UniProt A0A8I3S186 1-778) | binds |  |
| p53 (from UniProt Q29537 1-381) | binds | no binding (condition: in normal LEC samples) |
